Data as given in article PMC12709185.

Sequences of proteins named here, by UniProt entry; tags and fusion partners are left off. A change or cut given only in a name is not applied to a line headed by its entry.
UniProt Q9U2U0: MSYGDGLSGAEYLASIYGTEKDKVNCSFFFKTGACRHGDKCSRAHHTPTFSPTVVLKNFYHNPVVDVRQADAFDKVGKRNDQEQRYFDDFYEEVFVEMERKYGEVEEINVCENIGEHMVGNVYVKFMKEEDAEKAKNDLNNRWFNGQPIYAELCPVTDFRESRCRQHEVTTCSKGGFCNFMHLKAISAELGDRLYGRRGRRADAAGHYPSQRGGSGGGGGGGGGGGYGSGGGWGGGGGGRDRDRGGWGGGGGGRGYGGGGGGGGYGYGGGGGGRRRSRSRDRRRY

Tests used:
[1] = biological target: UAF-2::HA (C. elegans UAF-2, wild type) (C. elegans) (UniProt Q9U2U0); test: pull-down; lysate (NP-40 buffer) of HEK293T cells expressing UAF-2::HA incubated overnight at 4°C with purified His::UAF-1::FLAG and Protein A/G magnetic beads carrying anti-HA antibody; washed 5 times with 1 x PBST; western blot; only the binder purified
[2] = biological target: T1, His::UAF-1(T180I)::FLAG (C. elegans UAF-1 T180I) (C. elegans) (UniProt P90978); test: pull-down; lysate (NP-40 buffer) of HEK293T cells expressing UAF-2::HA incubated overnight at 4°C with purified His::UAF-1::FLAG and Protein A/G magnetic beads carrying anti-FLAG antibody; washed 5 times with 1 x PBST; western blot; only the target purified
T1 sequence: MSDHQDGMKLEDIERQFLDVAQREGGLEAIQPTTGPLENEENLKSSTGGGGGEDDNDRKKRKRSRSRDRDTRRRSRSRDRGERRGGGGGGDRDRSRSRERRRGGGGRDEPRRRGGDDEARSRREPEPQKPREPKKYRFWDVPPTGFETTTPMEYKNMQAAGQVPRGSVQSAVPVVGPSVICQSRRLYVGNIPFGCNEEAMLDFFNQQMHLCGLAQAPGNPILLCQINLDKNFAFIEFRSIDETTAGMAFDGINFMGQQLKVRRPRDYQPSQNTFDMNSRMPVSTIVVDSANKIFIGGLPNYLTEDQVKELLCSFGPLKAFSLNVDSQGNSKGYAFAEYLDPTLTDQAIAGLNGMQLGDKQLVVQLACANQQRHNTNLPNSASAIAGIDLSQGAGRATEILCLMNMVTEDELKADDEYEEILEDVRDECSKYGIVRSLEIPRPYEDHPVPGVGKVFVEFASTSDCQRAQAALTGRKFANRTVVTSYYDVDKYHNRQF

[3] = biological target: His::UAF-1::FLAG (C. elegans UAF-1, wild type) (C. elegans) (UniProt P90978); test: as above

binding [1]	binding [2]	binding [3]	Substance
binds			His::UAF-1::FLAG (C. elegans UAF-1, wild type) (from UniProt P90978-1 1-496)
	binds	binds	UAF-2::HA (C. elegans UAF-2, wild type) (from UniProt Q9U2U0)

Results are given in words; binding and its absence hold for the method and conditions named. In cells and extracts the contact can be indirect. Binding calls can cover weak binding; strength is not graded here. For part of these data: Tags and fused reporters may be left off the sequences shown.
